# Source: the supplement of paper PMC8728848
# This is one part of the list.
# B1: MCL (Mus musculus), Q9Z2H6 (protein)
# chain: MWLEESQMKSKGTRHPQLIPCVFAVVSISFLSACFISTCLVTHHYFLRWTRGSVVKLSDYHTRVTCIREEPQPGATGGTWTCCPVSWRAFQSNCYFPLNDNQTWHESERNCSGMSSHLVTINTEAEQNFVTQLLDKRFSYFLGLADENVEGQWQWVDKTPFNPHTVFWEKGESNDFMEEDCVVLVHVHEKWVWNDFPCHFEVRRICKLPGITFNWKPSK
# Assays:
# Test in all cases: glycan array binding signal (z-score within array); higher = stronger binding
# Conditions in all cases: glycan notation: IUPAC condensed, linker removed
# GlcNAc(b1-3)Gal(b1-4)Glc = target: GlcNAc(b1-3)Gal(b1-4)Glc
# How it was run: (§1)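 The Consortium for Functional Glycomics database supplied 3228 glycan arrays, of which those lacking an available protein sequence were dropped. The binding signal, a within-array Z-score, was averaged across arrays of the same protein sequence and across linkers. Negative scores can be read as non-binding.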
# [1] = target: GlcNAc(b1-3)Gal(b1-4)GlcNAc
# How it was run: as §1
# [2] = target: GlcNAc(b1-3)Gal(b1-4)GlcNAc(b1-3)Gal(b1-4)GlcNAc
# How it was run: as §1
# GlcNAc(b1-3)GalNAc = target: GlcNAc(b1-3)GalNAc
# How it was run: as §1
# GlcNAc(b1-3)Man = target: GlcNAc(b1-3)Man
# How it was run: as §1
# [3] = target: GlcNAc(b1-3)[GlcNAc(b1-4)][GlcNAc(b1-6)]GlcNAc
# How it was run: as §1
# [4] = target: GlcNAc(b1-3)[GlcNAc(b1-6)]Gal(b1-4)GlcNAc
# How it was run: as §1
# [5] = target: GlcNAc(b1-3)[GlcNAc(b1-6)]GalNAc
# How it was run: as §1
# [6] = target: GlcNAc(b1-4)Gal(b1-4)GlcNAc
# How it was run: as §1
# GlcNAc(b1-4)GlcNAc = target: GlcNAc(b1-4)GlcNAc
# How it was run: as §1
# [7] = target: GlcNAc(b1-4)GlcNAc(b1-4)GlcNAc
# How it was run: as §1
# [8] = target: GlcNAc(b1-4)GlcNAc(b1-4)GlcNAc(b1-4)GlcNAc(b1-4)GlcNAc
# How it was run: as §1
# [9] = target: GlcNAc(b1-4)GlcNAc(b1-4)GlcNAc(b1-4)GlcNAc(b1-4)GlcNAc(b1-4)GlcNAc
# How it was run: as §1
# [10] = target: GlcNAc(b1-4)[GlcNAc(b1-6)]GalNAc
# How it was run: as §1
# [11] = target: GlcNAc(b1-6)Gal(b1-4)GlcNAc
# How it was run: as §1
# GlcNAc(b1-6)GalNAc = target: GlcNAc(b1-6)GalNAc
# How it was run: as §1
# GlcNAc3Prop(b1-4)GlcNAc = target: GlcNAc3Prop(b1-4)GlcNAc
# How it was run: as §1
# Kdn(a2-3)Gal(b1-3)GlcNAc = target: Kdn(a2-3)Gal(b1-3)GlcNAc
# How it was run: as §1
# Kdn(a2-3)Gal(b1-4)GlcNAc = target: Kdn(a2-3)Gal(b1-4)GlcNAc
# How it was run: as §1
# [12] = target: Man(a1-2)Man(a1-2)Man(a1-3)Man
# How it was run: as §1
# [13] = target: Man(a1-2)Man(a1-2)Man(a1-6)[Man(a1-3)]Man
# How it was run: as §1
# Man(a1-2)Man(a1-3)Man = target: Man(a1-2)Man(a1-3)Man
# How it was run: as §1
# [14] = target: Man(a1-2)Man(a1-3)[Man(a1-2)Man(a1-6)]Man
# How it was run: as §1
# [15] = target: Man(a1-2)Man(a1-3)[Man(a1-2)Man(a1-6)]Man(a1-6)[Man(a1-2)Man(a1-2)Man(a1-3)]Man
# How it was run: as §1
# [16] = target: Man(a1-2)Man(a1-3)[Man(a1-2)Man(a1-6)]Man(a1-6)[Man(a1-2)Man(a1-2)Man(a1-3)]Man(b1-4)GlcNAc(b1-4)GlcNAc
# How it was run: as §1
# [17] = target: Man(a1-2)Man(a1-3)[Man(a1-6)]Man(a1-6)[Man(a1-2)Man(a1-3)]Man(b1-4)GlcNAc(b1-4)GlcNAc
# How it was run: as §1
# [18] = target: Man(a1-2)Man(a1-6)[Man(a1-3)]Man(a1-6)[Man(a1-2)Man(a1-2)Man(a1-3)]Man
# How it was run: as §1
# [19] = target: Man(a1-2)Man(a1-6)[Man(a1-3)]Man(a1-6)[Man(a1-2)Man(a1-2)Man(a1-3)]Man(b1-4)GlcNAc(b1-4)GlcNAc
# How it was run: as §1
# Man(a1-3)[Man(a1-6)]Man = target: Man(a1-3)[Man(a1-6)]Man
# How it was run: as §1
# [20] = target: Man(a1-3)[Man(a1-6)]Man(a1-6)[Man(a1-2)Man(a1-3)]Man(b1-4)GlcNAc(b1-4)GlcNAc
# How it was run: as §1
# [21] = target: Man(a1-3)[Man(a1-6)]Man(a1-6)[Man(a1-3)]Man
# How it was run: as §1
# [22] = target: Man(a1-3)[Man(a1-6)]Man(a1-6)[Man(a1-3)]Man(b1-4)GlcNAc(b1-4)GlcNAc
# How it was run: as §1
# [23] = target: Man(a1-3)[Man(a1-6)]Man(b1-4)GlcNAc(b1-4)GlcNAc
# How it was run: as §1
# Man(a1-6)Man = target: Man(a1-6)Man
# How it was run: as §1
# Man(b1-4)GlcNAc = target: Man(b1-4)GlcNAc
# How it was run: as §1
# Neu5Ac(a2-3)Gal = target: Neu5Ac(a2-3)Gal
# How it was run: as §1
# [24] = target: Neu5Ac(a2-3)Gal(b1-3)GalNAc
# How it was run: as §1
# [25] = target: Neu5Ac(a2-3)Gal(b1-3)GalNAc(b1-3)Gal(a1-4)Gal(b1-4)Glc
# How it was run: as §1
# [26] = target: Neu5Ac(a2-3)Gal(b1-3)GalNAc(b1-3)Gal(b1-4)GlcNAc
# How it was run: as §1
# [27] = target: Neu5Ac(a2-3)Gal(b1-3)GalNAc(b1-4)[Neu5Ac(a2-3)]Gal(b1-4)Glc
# How it was run: as §1
# [28] = target: Neu5Ac(a2-3)Gal(b1-3)GalNAc6S
# How it was run: as §1
# [29] = target: Neu5Ac(a2-3)Gal(b1-3)GlcNAc
# How it was run: as §1
# [30] = target: Neu5Ac(a2-3)Gal(b1-3)GlcNAc(b1-3)Gal(b1-3)GlcNAc
# How it was run: as §1
# [31] = target: Neu5Ac(a2-3)Gal(b1-3)GlcNAc6S
# How it was run: as §1
# [32] = target: Neu5Ac(a2-3)Gal(b1-3)[Fuc(a1-4)]GlcNAc
# How it was run: as §1
binder,measurement,setting,value
B1,glycan array binding signal (z-score),GlcNAc(b1-3)Gal(b1-4)Glc,0.443
same,glycan array binding signal (z-score),[1],-0.647
same,glycan array binding signal (z-score),[2],-0.556
same,glycan array binding signal (z-score),GlcNAc(b1-3)GalNAc,0.005
same,glycan array binding signal (z-score),GlcNAc(b1-3)Man,0.723
same,glycan array binding signal (z-score),[3],0.299
same,glycan array binding signal (z-score),[4],-0.357
same,glycan array binding signal (z-score),[5],-0.202
same,glycan array binding signal (z-score),[6],0.578
same,glycan array binding signal (z-score),GlcNAc(b1-4)GlcNAc,-0.412
same,glycan array binding signal (z-score),[7],-0.353
same,glycan array binding signal (z-score),[8],-0.065
same,glycan array binding signal (z-score),[9],0.386
same,glycan array binding signal (z-score),[10],-0.214
same,glycan array binding signal (z-score),[11],-0.735
same,glycan array binding signal (z-score),GlcNAc(b1-6)GalNAc,-0.45
same,glycan array binding signal (z-score),GlcNAc3Prop(b1-4)GlcNAc,-0.588
same,glycan array binding signal (z-score),Kdn(a2-3)Gal(b1-3)GlcNAc,0.241
same,glycan array binding signal (z-score),Kdn(a2-3)Gal(b1-4)GlcNAc,0.01
same,glycan array binding signal (z-score),[12],0.245
same,glycan array binding signal (z-score),[13],0.597
same,glycan array binding signal (z-score),Man(a1-2)Man(a1-3)Man,-0.282
same,glycan array binding signal (z-score),[14],-0.391
same,glycan array binding signal (z-score),[15],-0.139
same,glycan array binding signal (z-score),[16],-0.66
same,glycan array binding signal (z-score),[17],0.282
same,glycan array binding signal (z-score),[18],-0.171
same,glycan array binding signal (z-score),[19],1.1
same,glycan array binding signal (z-score),Man(a1-3)[Man(a1-6)]Man,0.611
same,glycan array binding signal (z-score),[20],0.18
same,glycan array binding signal (z-score),[21],0.384
same,glycan array binding signal (z-score),[22],-0.197
same,glycan array binding signal (z-score),[23],-0.106
same,glycan array binding signal (z-score),Man(a1-6)Man,-0.764
same,glycan array binding signal (z-score),Man(b1-4)GlcNAc,1.06
same,glycan array binding signal (z-score),Neu5Ac(a2-3)Gal,-0.436
same,glycan array binding signal (z-score),[24],-0.584
same,glycan array binding signal (z-score),[25],-0.559
same,glycan array binding signal (z-score),[26],-0.471
same,glycan array binding signal (z-score),[27],-0.68
same,glycan array binding signal (z-score),[28],1.7
same,glycan array binding signal (z-score),[29],0.527
same,glycan array binding signal (z-score),[30],0.595
same,glycan array binding signal (z-score),[31],-1.08
same,glycan array binding signal (z-score),[32],-0.576

# Reformatted as tab-separated lines: entries from further up
binder	measurement	setting	value
B1	glycan array binding signal (z-score)	[12]	0.245
same	glycan array binding signal (z-score)	[13]	0.597
same	glycan array binding signal (z-score)	Man(a1-2)Man(a1-3)Man	-0.282
